From PubChem BioAssay AID2685 (National Center for Advancing Translational Sciences (NCATS), 2010)
Some of the results follow. Further columns of the screen follow, without active or inactive calls. The list favours compounds with an active or inconclusive main result. Potencies come from curve fits of mixed quality, noted in brackets.

Assay: qHTS Assay for Lipid Storage Modulators in Drosophila S3 Cells;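 for cell number change: cells counted by Cell Tracker Red CMTPX staining in the red channel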
Conditions: BODIPY lipid droplet fluorescence, 18-24 h; for cell number change: measured here: cell count max response, cells fed with added oleic acid
Summary of the method: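 Drosophila S3 cells got compounds at several concentrations plus oleic acid (400 uM solution). Laser-scanning cytometry with 488 nm excitation read lipid droplets at 500-530 nm and cells at 575-640 nm. Percent activity was relative to 20 uM Triacsin C.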

[1] = measured here: lipid fluorescence (Fed channel) AC50, cells fed with added oleic acid
[2] = measured here: cell number channel AC50, cells fed with added oleic acid

SMILES | cell number change [%] | AC50 [1] | AC50 [2]
COc1ccc2[nH]c(C)c(C(=O)CN3CCOCC3)c2c1 | 26.4 |  | 
O=C1OC(c2ccc(Cl)cc2)=N/C1=C\C=C\c1ccco1 | 41.1 |  | 
CCCCOC(=O)N1CCOCCOCCN(C(=O)OCCCC)CCOCCOCC1 | 0.488 |  | 
Cc1ccc(CNc2ncnc(N)c2[N+](=O)[O-])cc1 | 7.93 |  | 
CCOc1ccccc1NC(=O)Nc1cc(S(=O)(=O)N(C)C)ccc1C | -23.5 | 29.1 µM [falling, single point] | 
O=C(CCC(=O)Nc1ccccc1Cl)NNC(=O)NC1CCCCC1 | 6.49 |  | 
CC(=O)NCCn1c(SCC(=O)NCCC(C)C)nc2ccccc2c1=O | 19.7 | 29.1 µM [rising, single point] | 
CCCCn1c(SCC(=O)Nc2ccc3c(c2)OCCO3)nnc1C(CC)N(C)C (stereo not drawn) | -64.4 | 6.51 µM [falling, partial curve] | 10.3 µM [falling, partial curve]
CC(C)OC(=O)c1cc2c(ccn2C)n1CC(=O)N(Cc1ccccc1)c1ccccc1 | -78 | 6.51 µM [falling, partial curve] | 11.6 µM [falling, partial curve]
CCOC(=O)c1c(C)[nH]c(C2=NNC(=Nc3ccc(OCC)cc3)SC2)c1C | 27.8 |  | 
COc1ccc2cc(C(=O)c3ccccc3)c(=O)oc2c1 | -28.8 |  | 0.58 µM [falling, full curve, poor fit]
COc1ccc(S(=O)(=O)N(CC(=O)Nc2cc(C)on2)Cc2ccccc2)cc1 | -17.1 | 5.8 µM [rising, single point] | 
CCCCc1n[nH]c(=S)n1Cc1ccccc1 | -15.1 | 35.5 µM [falling, single point] | 
COc1ccccc1N1CCN(c2ccc3cc(S(=O)(=O)N4CCCCC4)ccc3n2)CC1 | 13.1 | 29.1 µM [rising, single point] | 
Cc1cccc(C)c1NC(=O)c1nc(S(=O)(=O)Cc2ccccc2)ncc1Cl | -79.5 | 1.16 µM [falling, partial curve, poor fit] | 7.31 µM [falling, partial curve]
O=C(NC1CCCC1)C(c1ccsc1)N(Cc1ccco1)C(=O)Cc1cccs1 (stereo not drawn) | -17.3 | 23.1 µM [rising, single point] | 
O=C(CN1C(=O)COc2ccc(Cl)cc21)Nc1nccs1 | 6.36 | 0.82 µM [rising, partial curve] | 
O=C(CSc1nnc(C2CC2)n1C1CC1)c1ccc(F)c(F)c1 | -5.89 | 6.51 µM [rising, single point] | 
Cc1ccc(OCCCC(=O)N2CCOCC2)cc1 | 55.4 |  | 20.6 µM [rising, single point]
O=C(CCS(=O)(=O)Cc1ccccc1)N1CCN(c2ccccc2)CC1 | -37.5 | 20.6 µM [falling, single point] | 29.1 µM [falling, single point]
CC(OC(=O)c1nsc(Cl)c1Cl)C(=O)NCc1cccs1 (stereo not drawn) |  | 23.1 µM [falling, partial curve, poor fit] | 

SMILES | cell number change [%] | AC50 [1] | AC50 [2]
COc1cc(OC)c(C2=NOC(C(=O)NCc3cccs3)C2)cc1Cl (stereo not drawn) | -42.2 |  | 
N#Cc1c(-c2ccccc2Cl)c2c([nH]c1=O)-c1ccccc1OC2 | 7.43 | 1.03 µM [falling, full curve, poor fit] | 
COc1ccccc1/C=C1\SC(=S)N(CCC(=O)NNC(=O)c2ccccc2OC)C1=O | -7.21 | 29.1 µM [falling, single point] | 
CCN1/C(=C2/SC(=S)N(NC(C)=O)C2=O)Sc2ccc(OC)cc21 | -23.7 | 14.6 µM [falling, single point] | 
C/C(=N\NC(=S)NCCc1ccccc1)c1ccc(Cl)cc1Cl | 3.33 | 11.6 µM [rising, single point] | 
Cn1c(Cc2ccc3c(c2)OCO3)nnc1SCC(=O)N1CCc2ccccc2C1 | 4.05 | 2.59 µM [rising, single point] | 
c1ccc(-c2oc3ncnc(NCCCn4ccnc4)c3c2-c2ccccc2)cc1 | -37.3 | 18.4 µM [falling, partial curve] | 3.66 µM [falling, partial curve]
CCOC(=O)C1=C(c2ccccc2)N=C2SCC(=O)N2C1c1ccc2c(c1)OCO2 (stereo not drawn) | 13.6 |  | 
COc1ccc(C(=O)C2CCCN(Cc3c(C)[nH]c4ccccc34)C2)c(OC)c1 (stereo not drawn) | 12.5 | 5.8 µM [rising, partial curve, poor fit] | 
CCn1c(SCC(=O)NCCc2ccccc2)nnc1-c1cccs1 | 6.44 | 1.84 µM [rising, full curve, poor fit] | 
O=C(COc1ccccc1)NNc1nc2c(F)cc(F)cc2s1 |  |  | 0.517 µM [rising, single point]
CCOC(=O)Cc1nnc(NC(=O)CSc2nncn2C)s1 | -24.3 | 23.1 µM [falling, single point] | 
O=C(C1CCN(Cc2ccc(Cl)cc2)CC1)N1CCN(C(c2ccccc2)c2ccccc2)CC1 | -47.7 | 29.1 µM [falling, single point] | 32.6 µM [falling, single point]
CCOC(=O)COc1ccc(S(=O)(=O)c2ccc(OCC(=O)OCC)cc2)cc1 | -98.2 | 29.1 µM [falling, partial curve] | 29.1 µM [falling, single point]
CCc1nnc(NC(=O)CCC(=O)N2CCN(Cc3cc(Cl)ccc3OC)CC2)s1 | -7.53 | 0.461 µM [rising, single point] | 
NC(=O)c1ccc2c(c1)OCCO2 | 4.01 | 14.6 µM [falling, single point] | 
O=S(=O)(c1cnc[nH]1)N1CCN(c2ccc(Cl)cc2)CC1 |  | 0.517 µM [falling, full curve] | 5.17 µM [falling, single point]
COc1nc(OC)nc(N2CCC(NC(=O)C(Cc3cccc(OC)c3OC)NC(C)=O)CC2)n1 (stereo not drawn) | -4.77 | 3.66 µM [falling, full curve] | 
NC(=O)C1CCN(C2=C(NS(=O)(=O)c3ccc(Cl)cc3)C(=O)c3ccccc3C2=O)CC1 | -14.7 | 4.11 µM [falling, full curve] | 
CCOCCCNC(=O)c1ccc2c(c1)OCO2 | 10.6 | 11.6 µM [rising, partial curve] | 
CC1=CC(=C(C#N)c2nc3ccccc3s2)C=C(C)N1CC1CCCO1 (stereo not drawn) | 63.6 | 6.51 µM [rising, single point] | 2.91 µM [rising, full curve]

In the list so far, these contain a furan ring, fused or not.
SMILES | cell number change [%] | AC50 [1] | AC50 [2]
O=C1OC(c2ccc(Cl)cc2)=N/C1=C\C=C\c1ccco1 | 41.1 |  | 
O=C(NC1CCCC1)C(c1ccsc1)N(Cc1ccco1)C(=O)Cc1cccs1 (stereo not drawn) | -17.3 | 23.1 µM [rising, single point] | 
c1ccc(-c2oc3ncnc(NCCCn4ccnc4)c3c2-c2ccccc2)cc1 | -37.3 | 18.4 µM [falling, partial curve] | 3.66 µM [falling, partial curve]

Next part:

SMILES | cell number change [%] | AC50 [1] | AC50 [2]
CC(C)c1ccc(NC(=O)Cn2ncn3c(cc4ccccc43)c2=O)cc1 | -33.3 | 29.1 µM [falling, single point] | 0.259 µM [falling, full curve]
C=CCN1C(=NC(=O)COc2ccccc2)SC2CS(=O)(=O)CC21 (stereo not drawn) | 3.24 | 16.4 µM [rising, single point] | 
O=C(N/N=C/c1cc(Cl)ccc1O)C(=O)Nc1ccccc1OC(F)(F)C(F)F | -6.19 | 29.1 µM [falling, single point] | 
CCCOc1ccc(C(=O)N2CCCc3ccccc32)cc1 | -4.45 | 0.92 µM [rising, full curve] | 
CSCCC(NC(=O)c1ccccc1)C(=O)NCCCn1nc(C)cc1C (stereo not drawn) | -20.1 |  | 
COc1ccc(CCNc2cc(C)nc3c(-c4ccccc4)c(C)nn23)cc1OC | -9.55 | 29.1 µM [falling, single point] | 
CCc1ccc(C(=O)NC(C(=O)O)C(C)C)cc1 (stereo not drawn) | 17.3 |  | 
Cc1c(Cl)c(-c2n[nH]c(=S)n2Cc2ccco2)nn1C |  |  | 1.03 µM [rising, full curve]
O=C(COC(=O)c1cc[n+]([O-])cc1)Nc1ccc2c(c1)OCCO2 | -19.7 | 2.59 µM [falling, full curve] | 
COc1cc2c(cc1OC)C1=NC(=O)CN1C(SCc1ccc(C)cc1)=N2 | -47.8 |  | 29.1 µM [falling, single point]
Cc1noc(/C=C/N(C)C)c1S(=O)(=O)N1CCCC(C(=O)N2CCCCC2)C1 (stereo not drawn) | 0.474 | 20.6 µM [falling, partial curve] | 
N#CCCn1cc(C(=O)Nc2ccc(C(=O)O)cc2)c(-c2cc3ccccc3o2)n1 | -20.4 | 0.58 µM [falling, single point] | 
COc1cc(OC)cc(C(=O)OC(C)C(=O)NC2CCCc3ccccc32)c1 (stereo not drawn) | -30.7 | 0.184 µM [rising, full curve, poor fit] | 29.1 µM [falling, single point]
CCOC(=O)N1CCC(NC(=O)c2cc(C(=O)Nc3cccc(C(F)(F)F)c3)ccc2CO)CC1 | 22.8 | 0.0092 µM [rising, full curve, poor fit] | 0.00461 µM [rising, full curve, poor fit]
COC(=O)CC1Oc2ccc(C)cc2NC1=O (stereo not drawn) | -25.5 | 20.6 µM [falling, single point] | 
Cc1ccc(-c2nc3ccc([N+](=O)[O-])cc3[nH]2)cc1 | -12.3 | 0.164 µM [rising, full curve, poor fit] | 
O=[N+]([O-])c1cc([N+](=O)[O-])c2oc(-c3ccccc3)c(Br)c2c1O | -12.5 |  | 
COc1ccc(/C(N)=C/C(=O)C(C)(C)C)cc1 | -27 |  | 
CCOC(=O)Nc1cc(C(=O)OC)cc(C(=O)OC)c1 | 11.2 | 1.84 µM [rising, full curve] | 
